# According to patent publication US9134318B2, “Detection of oxidized polypeptides” (Purdue Research Foundation, priority 2009, dated 2015):
# Where “and” joins values, the source holds several entries; their conditions need not be identical. Identical values can stand only once.
# B1: Galectin-3-binding protein precursor (protein, UniProt Q08380 19-585, looked up)
# pro-form: VNDGDMRLADGGATNQGRVEIFYRGQWGTVCDNLWDLTDASVVCRALGFENATQALGRAAFGQGSGPIMLDEVQCTGTEASLADCKSLGWLKSNCRHERDAGVVCTNETRSTHTLDLSRELSEALGQIFDSQRGCDLSISVNVQGEDALGFCGHTVILTANLEAQALWKEPGSNVTMSVDAECVPMVRDLLRYFYSRRIDITLSSVKCFHKLASAYGARQLQGYCASLFAILLPQDPSFQMPLDLYAYAVATGDALLEKLCLQFLAWNFEALTQAEAWPSVPTDLLQLLLPRSDLAVPSELALLKAVDTWSWGERASHEEVEGLVEKIRFPMMLPEELFELQFNLSLYWSHEALFQKKTLQALEFHTVPFQLLARYKGLNLTEDTYKPRIYTSPTWSAFVTDSSWSARKSQLVYQSRRGPLVKYSSDYFQAPSDYRYYPYQSFQTPQHPSFLFQDKRVSWSLVYLPTIQSCWNYGFSCSSDELPVLGLTKSGGSDRTIAYENKALMLCEGLFVADVTDFEGWKAAIPSALDTNSSKSTSSFPCPAGHFNGFRTVIRPFYLTNSSGVD
# modifications: pro-form
# B2: Hook homolog 2 (protein, UniProt Q96ED9 1-719, looked up)
# Protein Hook homolog 2: MSVDKAELCGSLLTWLQTFHVPSPCASPQDLSSGLAVAYVLNQIDPSWFNEAWLQGISEDPGPNWKLKVSNLKMVLRSLVEYSQDVLAHPVSEEHLPDVSLIGEFSDPAELGKLLQLVLGCAISCEKKQDHIQRIMTLEESVQHVVMEAIQELMTKDTPDSLSPETYGNFDSQSRRYYFLSEEAEEGDELQQRCLDLERQLMLLSEEKQSLAQENAGLRERMGRPEGEGTPGLTAKKLLLLQSQLEQLQEENFRLESGREDERLRCAELEREVAELQHRNQALTSLAQEAQALKDEMDELRQSSERAGQLEATLTSCRRRLGELRELRRQVRQLEERNAGHAERTRQLEDELRRAGSLRAQLEAQRRQVQELQGQRQEEAMKAEKWLFECRNLEEKYESVTKEKERLLAERDSLREANEELRCAQLQPRGLTQADPSLDPTSTPVDNLAAEILPAELRETLLRLQLENKRLCRQEAADRERQEELQRHLEDANRARHGLETQHRLNQQQLSELRAQVEDLQKALQEQGGKTEDAISILLKRKLEEHLQKLHEADLELQRKREYIEELEPPTDSSTARRIEELQHNLQKKDADLRAMEERYRRYVDKARMVMQTMEPKQRPAAGAPPELHSLRTQLRERDVRIRHLEMDFEKSRSQREQEEKLLISAWYNMGMALQQRAGEERAPAHAQSFLAQQRLATNSRRGPLGRLASLNLRPTDKH
# B3: Ig alpha-1 chain C region (protein, UniProt P01876 1-398, looked up)
# Immunoglobulin heavy constant …: ASPTSPKVFPLSLCSTQPDGNVVIACLVQGFFPQEPLSVTWSESGQGVTARNFPPSQDASGDLYTTSSQLTLPATQCLAGKSVTCHVKHYTNPSQDVTVPCPVPSTPPTPSPSTPPTPSPSCCHPRLSLHRPALEDLLLGSEANLTCTLTGLRDASGVTFTWTPSSGKSAVQGPPERDLCGCYSVSSVLPGCAEPWNHGKTFTCTAAYPESKTPLTATLSKSGNTFRPEVHLLPPPSEELALNELVTLTCLARGFSPKDVLVRWLQGSQELPREKYLTWASRQEPSQGTTTFAVTSILRVAAEDWKKGDTFSCMVGHEALPLAFTQKTIDRLADWQMPPPYVVLDLPQETLEEETPGANLWPTTITFLTLFLLSLFYSTALTVTSVRGPSGNREGPQY
# B4: Ig alpha-2 chain C region (protein, UniProt P01877 1-391, looked up)
# Immunoglobulin heavy constant …: ASPTSPKVFPLSLDSTPQDGNVVVACLVQGFFPQEPLSVTWSESGQNVTARNFPPSQDASGDLYTTSSQLTLPATQCPDGKSVTCHVKHYTNSSQDVTVPCRVPPPPPCCHPRLSLHRPALEDLLLGSEANLTCTLTGLRDASGATFTWTPSSGKSAVQGPPERDLCGCYSVSSVLPGCAQPWNHGETFTCTAAHPELKTPLTANITKSGNTFRPEVHLLPPPSEELALNELVTLTCLARGFSPKDVLVRWLQGSQELPREKYLTWASRQEPSQGTTTYAVTSILRVAAEDWKKGETFSCMVGHEALPLAFTQKTIDRMAGSCCVADWQMPPPYVVLDLPQETLEEETPGANLWPTTITFLTLFLLSLFYSTALTVTSVRGPSGKREGPQY
# B5: Ig gamma-2 chain C region (protein, UniProt P01859 1-395, looked up)
# Immunoglobulin heavy constant …: ASTKGPSVFPLAPCSRSTSESTAALGCLVKDYFPEPVTVSWNSGALTSGVHTFPAVLQSSGLYSLSSVVTVPSSNFGTQTYTCNVDHKPSNTKVDKTVERKCCVECPPCPAPPVAGPSVFLFPPKPKDTLMISRTPEVTCVVVDVSHEDPEVQFNWYVDGVEVHNAKTKPREEQFNSTFRVVSVLTVVHQDWLNGKEYKCKVSNKGLPAPIEKTISKTKGQPREPQVYTLPPSREEMTKNQVSLTCLVKGFYPSDISVEWESNGQPENNYKTTPPMLDSDGSFFLYSKLTVDKSRWQQGNVFSCSVMHEALHNHYTQKSLSLSPELQLEESCAEAQDGELDGLWTTITIFITLFLLSVCYSATITFFKVKWIFSSVVDLKQTIVPDYRNMIRQGA
# B6: Ig gamma-3 chain C region (protein, UniProt P01860 1-446, looked up)
# Immunoglobulin heavy constant …: ASTKGPSVFPLAPCSRSTSGGTAALGCLVKDYFPEPVTVSWNSGALTSGVHTFPAVLQSSGLYSLSSVVTVPSSSLGTQTYTCNVNHKPSNTKVDKRVELKTPLGDTTHTCPRCPEPKSCDTPPPCPRCPEPKSCDTPPPCPRCPEPKSCDTPPPCPRCPAPELLGGPSVFLFPPKPKDTLMISRTPEVTCVVVDVSHEDPEVQFKWYVDGVEVHNAKTKPREEQYNSTFRVVSVLTVLHQDWLNGKEYKCKVSNKALPAPIEKTISKTKGQPREPQVYTLPPSREEMTKNQVSLTCLVKGFYPSDIAVEWESSGQPENNYNTTPPMLDSDGSFFLYSKLTVDKSRWQQGNIFSCSVMHEALHNRFTQKSLSLSPELQLEESCAEAQDGELDGLWTTITIFITLFLLSVCYSATVTFFKVKWIFSSVVDLKQTIIPDYRNMIGQGA
# modifications: oxidized
# B7: Ig gamma-4 chain C region (protein, UniProt P01861 1-396, looked up)
# Immunoglobulin heavy constant …: ASTKGPSVFPLAPCSRSTSESTAALGCLVKDYFPEPVTVSWNSGALTSGVHTFPAVLQSSGLYSLSSVVTVPSSSLGTKTYTCNVDHKPSNTKVDKRVESKYGPPCPSCPAPEFLGGPSVFLFPPKPKDTLMISRTPEVTCVVVDVSQEDPEVQFNWYVDGVEVHNAKTKPREEQFNSTYRVVSVLTVLHQDWLNGKEYKCKVSNKGLPSSIEKTISKAKGQPREPQVYTLPPSQEEMTKNQVSLTCLVKGFYPSDIAVEWESNGQPENNYKTTPPVLDSDGSFFLYSRLTVDKSRWQEGNVFSCSVMHEALHNHYTQKSLSLSLELQLEESCAEAQDGELDGLWTTITIFITLFLLSVCYSATVTFFKVKWIFSSVVDLKQTIVPDYRNMIRQGA
# modifications: oxidized
# B8: Inter-alpha-trypsin inhibitor heavy chain H1 precursor (protein, UniProt P19827 35-672, looked up)
# Inter-alpha-trypsin inhibitor …: SKSSEKRQAVDTAVDGVFIRSLKVNCKVTSRFAHYVVTSQVVNTANEAREVAFDLEIPKTAFISDFAVTADGNAFIGDIKDKVTAWKQYRKAAISGENAGLVRASGRTMEQFTIHLTVNPQSKVTFQLTYEEVLKRNHMQYEIVIKVKPKQLVHHFEIDVDIFEPQGISKLDAQASFLPKELAAQTIKKSFSGKKGHVLFRPTVSQQQSCPTCSTSLLNGHFKVTYDVSRDKICDLLVANNHFAHFFAPQNLTNMNKNVVFVIDISGSMRGQKVKQTKEALLKILGDMQPGDYFDLVLFGTRVQSWKGSLVQASEANLQAAQDFVRGFSLDEATNLNGGLLRGIEILNQVQESLPELSNHASILIMLTDGDPTEGVTDRSQILKNVRNAIRGRFPLYNLGFGHNVDFNFLEVMSMENNGRAQRIYEDHDATQQLQGFYSQVAKPLLVDVDLQYPQDAVLALTQNHHKQYYEGSEIVVAGRIADNKQSSFKADVQAHGEGQEFSITCLVDEEEMKKLLRERGHMLENHVERLWAYLTIQELLAKRMKVDREERANLSSQALQMSLDYGFVTPLTSMSIRGMADQDGLKPTIDKPSEDSPPLEMLGPRRTFVLSALQPSPTHSSSNTQRLPDRVTGVDTD
# B9: Katanin p80 WD40-containing subunit B1 (protein, UniProt Q9BVA0 1-655, looked up)
# Katanin p80 WD40 …: MATPVVTKTAWKLQEIVAHASNVSSLVLGKASGRLLATGGDDCRVNLWSINKPNCIMSLTGHTSPVESVRLNTPEELIVAGSQSGSIRVWDLEAAKILRTLMGHKANICSLDFHPYGEFVASGSQDTNIKLWDIRRKGCVFRYRGHSQAVRCLRFSPDGKWLASAADDHTVKLWDLTAGKMMSEFPGHTGPVNVVEFHPNEYLLASGSSDRTIRFWDLEKFQVVSCIEGEPGPVRSVLFNPDGCCLYSGCQDSLRVYGWEPERCFDVVLVNWGKVADLAICNDQLIGVAFSQSNVSSYVVDLTRVTRTGTVARDPVQDHRPLAQPLPNPSAPLRRIYERPSTTCSKPQRVKQNSESERRSPSSEDDRDERESRAEIQNAEDYNEIFQPKNSISRTPPRRSEPFPAPPEDDAATAKEAAKPSPAMDVQFPVPNLEVLPRPPVVASTPAPKAEPAIIPATRNEPIGLKASDFLPAVKIPQQAELVDEDAMSQIRKGHDTMCVVLTSRHKNLDTVRAVWTMGDIKTSVDSAVAINDLSVVVDLLNIVNQKASLWKLDLCTTVLPQIEKLLQSKYESYVQTGCTSLKLILQRFLPLITDMLAAPPSVGVDISREERLHKCRLCYKQLKSISGLVKSKSGLSGRHGSTFRELHLLMASLD
# B10: Kelch-like protein 4 (protein, UniProt Q9C0H6 1-718, looked up)
# Kelch-like protein 4: MSVSGKKEFDVKQILRLRWRWFSHPFQGSTNTGSCLQQEGYEHRGTPVQGRLKSHSRDRNGLKKSNSPVHHNILAPVPGPAPAHQRAVQNLQQHNLIVHFQANEDTPKSVPEKNLFKEACEKRAQDLEMMADDNIEDSTARLDTQHSEDMNATRSEEQFHVINHAEQTLRKMENYLKEKQLCDVLLIAGHLRIPAHRLVLSAVSDYFAAMFTNDVLEAKQEEVRMEGVDPNALNSLVQYAYTGVLQLKEDTIESLLAAACLLQLTQVIDVCSNFLIKQLHPSNCLGIRSFGDAQGCTELLNVAHKYTMEHFIEVIKNQEFLLLPANEISKLLCSDDINVPDEETIFHALMQWVGHDVQNRQGELGMLLSYIRLPLLPPQLLADLETSSMFTGDLECQKLLMEAMKYHLLPERRSMMQSPRTKPRKSTVGALYAVGGMDAMKGTTTIEKYDLRTNSWLHIGTMNGRRLQFGVAVIDNKLYVVGGRDGLKTLNTVECFNPVGKIWTVMPPMSTHRHGLGVATLEGPMYAVGGHDGWSYLNTVERWDPEGRQWNYVASMSTPRSTVGVVALNNKLYAIGGRDGSSCLKSMEYFDPHTNKWSLCAPMSKRRGGVGVATYNGFLYVVGGHDAPASNHCSRLSDCVERYDPKGDSWSTVAPLSVPRDAVAVCPLGDKLYVVGGYDGHTYLNTVESYDAQRNEWKEEVPVNIGRAGACVVVVKLP
# modifications: oxidized
# System: carbonylated plasma proteins
# Assay: iTRAQ and MALDI/TOF/TOF quantitative comparison of avidin-selected carbonylated proteins, breast cancer patients vs controls (Table 8)
# Parameters: species or system Homo sapiens
# Conditions: avidin-selected carbonylated protein in plasma, breast cancer patient vs matched control, iTRAQ; repeated lines of a protein = different donors; negative = lower in cancer
row,Molecule,Breast cancer/control (fold change)
1,B1,9.0 fold change
2,B2,2.6 fold change
3,B3,2.6 fold change and 1.8 fold change
4,B4,1.6 fold change
5,B5,1.9 fold change
6,B6,2.4 fold change
7,B7,−2.8 fold change
8,B8,−6.3 fold change
9,B9,−3.4 fold change
10,B10,−3.5 fold change
